# The other results are listed elsewhere or left out.
# Assays:
# Assay in all cases: glycan array binding signal (z-score within array); higher = stronger binding
# Details in all cases: glycan notation: IUPAC condensed, linker removed
# [1] = target: Gal(b1-3)GlcNAc(b1-2)Man(a1-3)[Gal(b1-3)GlcNAc(b1-2)Man(a1-6)]Man(b1-4)GlcNAc(b1-4)GlcNAc
# How it was run: (§1)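 The binding signal is a Z-score computed within each array. Data were drawn from 3228 arrays in the Consortium for Functional Glycomics database, restricted to those with a known protein sequence. Scores were averaged over arrays of the same protein sequence at different concentrations or buffers, and over linkers, and negative values can be taken as non-binding.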
# [2] = target: Gal(b1-3)GlcNAc(b1-2)Man(a1-3)[Gal(b1-3)GlcNAc(b1-2)Man(a1-6)]Man(b1-4)GlcNAc(b1-4)[Fuc(a1-6)]GlcNAc
# How it was run: as §1
# [3] = target: Gal(b1-3)GlcNAc(b1-2)Man(a1-3)[GlcNAc(b1-4)][Gal(b1-3)GlcNAc(b1-2)Man(a1-6)]Man(b1-4)GlcNAc(b1-4)GlcNAc
# How it was run: as §1
# [4] = target: Gal(b1-3)GlcNAc(b1-2)[Gal(b1-3)GlcNAc(b1-6)]Man(a1-6)[Gal(b1-3)GlcNAc(b1-2)Man(a1-3)]Man(b1-4)GlcNAc(b1-4)GlcNAc
# How it was run: as §1
# [5] = target: Gal(b1-3)GlcNAc(b1-3)Gal(b1-3)GlcNAc
# How it was run: as §1
# [6] = target: Gal(b1-3)GlcNAc(b1-3)Gal(b1-4)Glc
# How it was run: as §1
# [7] = target: Gal(b1-3)GlcNAc(b1-3)Gal(b1-4)GlcNAc
# How it was run: as §1
# [8] = target: Gal(b1-3)GlcNAc(b1-3)Gal(b1-4)GlcNAc(b1-2)Man(a1-3)[Gal(b1-3)GlcNAc(b1-3)Gal(b1-4)GlcNAc(b1-2)Man(a1-6)]Man(b1-4)GlcNAc(b1-4)GlcNAc
# How it was run: as §1
# [9] = target: Gal(b1-3)GlcNAc(b1-3)Gal(b1-4)GlcNAc(b1-2)[Gal(b1-3)GlcNAc(b1-3)Gal(b1-4)GlcNAc(b1-6)]Man(a1-6)[Gal(b1-3)GlcNAc(b1-3)Gal(b1-4)GlcNAc(b1-2)Man(a1-3)]Man(b1-4)GlcNAc(b1-4)[Fuc(a1-6)]GlcNAc
# How it was run: as §1
# [10] = target: Gal(b1-3)GlcNAc(b1-3)Gal(b1-4)GlcNAc(b1-3)Gal(b1-4)GlcNAc(b1-2)[Gal(b1-3)GlcNAc(b1-3)Gal(b1-4)GlcNAc(b1-3)Gal(b1-4)GlcNAc(b1-6)]Man(a1-6)[Gal(b1-3)GlcNAc(b1-3)Gal(b1-4)GlcNAc(b1-3)Gal(b1-4)GlcNAc(b1-2)Man(a1-3)]Man(b1-4)GlcNAc(b1-4)[Fuc(a1-6)]GlcNAc
# How it was run: as §1
# [11] = target: Gal(b1-3)GlcNAc(b1-3)Gal(b1-4)GlcNAc(b1-6)[Gal(b1-3)GlcNAc(b1-3)]Gal(b1-4)Glc
# How it was run: as §1
# [12] = target: Gal(b1-3)GlcNAc(b1-3)Gal(b1-4)[Fuc(a1-3)]GlcNAc
# How it was run: as §1
# [13] = target: Gal(b1-3)GlcNAc(b1-3)Gal(b1-4)[Fuc(a1-3)]GlcNAc(b1-6)[Gal(b1-3)GlcNAc(b1-3)]Gal(b1-4)Glc
# How it was run: as §1
# [14] = target: Gal(b1-3)GlcNAc(b1-3)GalNAc
# How it was run: as §1
# [15] = target: Gal(b1-3)GlcNAc(b1-6)Gal(b1-4)GlcNAc
# How it was run: as §1
# [16] = target: Gal(b1-3)GlcNAc(b1-6)GalNAc
# How it was run: as §1
# [17] = target: Gal(b1-3)GlcNAc(b1-6)[Gal(b1-3)]GalNAc
# How it was run: as §1
# Gal(b1-3)GlcNAc6S = target: Gal(b1-3)GlcNAc6S
# How it was run: as §1
# [18] = target: Gal(b1-3)[Fuc(a1-4)]GlcNAc
# How it was run: as §1
# [19] = target: Gal(b1-3)[Fuc(a1-4)]GlcNAc(b1-2)Man
# How it was run: as §1
# [20] = target: Gal(b1-3)[Fuc(a1-4)]GlcNAc(b1-2)Man(a1-3)[Gal(b1-3)[Fuc(a1-4)]GlcNAc(b1-2)Man(a1-6)]Man(b1-4)GlcNAc(b1-4)[Fuc(a1-6)]GlcNAc
# How it was run: as §1
# [21] = target: Gal(b1-3)[Fuc(a1-4)]GlcNAc(b1-3)Gal(b1-3)[Fuc(a1-4)]GlcNAc
# How it was run: as §1
# [22] = target: Gal(b1-3)[Fuc(a1-4)]GlcNAc(b1-3)Gal(b1-4)[Fuc(a1-3)]GlcNAc
# How it was run: as §1
# [23] = target: Gal(b1-3)[Fuc(a1-4)]GlcNAc(b1-6)GalNAc
# How it was run: as §1
# [24] = target: Gal(b1-3)[GlcNAc(b1-6)]GalNAc
# How it was run: as §1
# [25] = target: Gal(b1-3)[Neu5Ac(a2-6)]GalNAc
# How it was run: as §1
# [26] = target: Gal(b1-3)[Neu5Ac(a2-6)]GlcNAc(b1-4)Gal(b1-4)Glc
# How it was run: as §1
# [27] = target: Gal(b1-3)[Neu5Ac(b2-6)]GalNAc
# How it was run: as §1
# Gal(b1-4)Gal = target: Gal(b1-4)Gal
# How it was run: as §1
# [28] = target: Gal(b1-4)GalNAc(a1-3)[Fuc(a1-2)]Gal(b1-4)GlcNAc
# How it was run: as §1
# [29] = target: Gal(b1-4)GalNAc(b1-3)[Fuc(a1-2)]Gal(b1-4)GlcNAc
# How it was run: as §1
# Gal(b1-4)Glc = target: Gal(b1-4)Glc
# How it was run: as §1
# Gal(b1-4)Glc6S = target: Gal(b1-4)Glc6S
# How it was run: as §1
# Gal(b1-4)GlcNAc = target: Gal(b1-4)GlcNAc
# How it was run: as §1
# [30] = target: Gal(b1-4)GlcNAc(a1-6)Gal(b1-4)GlcNAc
# How it was run: as §1
# Gal(b1-4)GlcNAc(b1-2)Man = target: Gal(b1-4)GlcNAc(b1-2)Man
# How it was run: as §1
# [31] = target: Gal(b1-4)GlcNAc(b1-2)Man(a1-3)Man(b1-4)GlcNAc(b1-4)GlcNAc
# How it was run: as §1
binder,measurement,setting,value
Epa21 (Candida glabrata) (protein) MGSSHHHHHHSSGLVPRGSHMASTPNIESHPQGCSPVDTSGIKPGLKMDLYRFPITPPGTGCWSWDWLTVTPDFPRSGYWKWPKIAEVDGVVGPLHLDSGHPTCDPLTSVLPHGFNYLQSITTTNFTMVLHGYFVPKQSGKYTFEFKADDALLLNLGAGNAFSCCDYNNSQYNQGEYLAYAIWSKNNQTATLYLEKGIYYPIRVFYHNRCCGAYMDVVYYFNDSPIPNRDFSGLLFSIPDSDSCDANI,glycan array binding signal (z-score),[1],0.237
same,glycan array binding signal (z-score),[2],-0.353
same,glycan array binding signal (z-score),[3],0.034
same,glycan array binding signal (z-score),[4],-0.362
same,glycan array binding signal (z-score),[5],-0.042
same,glycan array binding signal (z-score),[6],-0.845
same,glycan array binding signal (z-score),[7],-0.56
same,glycan array binding signal (z-score),[8],-1.02
same,glycan array binding signal (z-score),[9],0.46
same,glycan array binding signal (z-score),[10],1.23
same,glycan array binding signal (z-score),[11],-0.072
same,glycan array binding signal (z-score),[12],-0.396
same,glycan array binding signal (z-score),[13],-0.438
same,glycan array binding signal (z-score),[14],-0.317
same,glycan array binding signal (z-score),[15],-0.159
same,glycan array binding signal (z-score),[16],-0.579
same,glycan array binding signal (z-score),[17],0.684
same,glycan array binding signal (z-score),Gal(b1-3)GlcNAc6S,0.091
same,glycan array binding signal (z-score),[18],-0.527
same,glycan array binding signal (z-score),[19],0.139
same,glycan array binding signal (z-score),[20],0.293
same,glycan array binding signal (z-score),[21],-0.249
same,glycan array binding signal (z-score),[22],-0.59
same,glycan array binding signal (z-score),[23],1.42
same,glycan array binding signal (z-score),[24],-0.376
same,glycan array binding signal (z-score),[25],-0.119
same,glycan array binding signal (z-score),[26],-0.341
same,glycan array binding signal (z-score),[27],-0.153
same,glycan array binding signal (z-score),Gal(b1-4)Gal,-0.452
same,glycan array binding signal (z-score),[28],-1.08
same,glycan array binding signal (z-score),[29],-1.1
same,glycan array binding signal (z-score),Gal(b1-4)Glc,-0.686
same,glycan array binding signal (z-score),Gal(b1-4)Glc6S,1.12
same,glycan array binding signal (z-score),Gal(b1-4)GlcNAc,-0.494
same,glycan array binding signal (z-score),[30],-0.351
same,glycan array binding signal (z-score),Gal(b1-4)GlcNAc(b1-2)Man,0.682
same,glycan array binding signal (z-score),[31],-0.399

# An excerpt of these results, with bars between the fields.
binder | measurement | setting | value
Epa21 (Candida glabrata) (protein) MGSSHHHHHHSSGLVPRGSHMASTPNIESHPQGCSPVDTSGIKPGLKMDLYRFPITPPGTGCWSWDWLTVTPDFPRSGYWKWPKIAEVDGVVGPLHLDSGHPTCDPLTSVLPHGFNYLQSITTTNFTMVLHGYFVPKQSGKYTFEFKADDALLLNLGAGNAFSCCDYNNSQYNQGEYLAYAIWSKNNQTATLYLEKGIYYPIRVFYHNRCCGAYMDVVYYFNDSPIPNRDFSGLLFSIPDSDSCDANI | glycan array binding signal (z-score) | [9] | 0.46
same | glycan array binding signal (z-score) | [10] | 1.23
same | glycan array binding signal (z-score) | [11] | -0.072
same | glycan array binding signal (z-score) | [12] | -0.396
same | glycan array binding signal (z-score) | [13] | -0.438
same | glycan array binding signal (z-score) | [14] | -0.317
same | glycan array binding signal (z-score) | [15] | -0.159
same | glycan array binding signal (z-score) | [16] | -0.579
same | glycan array binding signal (z-score) | [17] | 0.684

# — the supplement of paper PMC8728848
